Assay results taken from paper PMC10618106.

Protein sequences, listed by entry. Tags and fused reporters are not part of them.
UniProt P68400: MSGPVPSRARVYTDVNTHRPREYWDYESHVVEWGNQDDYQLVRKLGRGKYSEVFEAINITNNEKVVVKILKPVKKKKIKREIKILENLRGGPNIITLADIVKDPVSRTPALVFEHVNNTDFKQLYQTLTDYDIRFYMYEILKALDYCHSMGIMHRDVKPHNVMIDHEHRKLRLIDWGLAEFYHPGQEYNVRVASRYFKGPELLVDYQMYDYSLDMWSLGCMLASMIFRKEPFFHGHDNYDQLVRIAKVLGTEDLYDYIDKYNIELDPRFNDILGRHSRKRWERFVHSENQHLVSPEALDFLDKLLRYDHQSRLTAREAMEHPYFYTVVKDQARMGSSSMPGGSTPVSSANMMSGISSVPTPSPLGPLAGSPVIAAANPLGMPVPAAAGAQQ

B1: General transcription factor 3C polypeptide 4 (protein, UniProt Q9UKN8 1-822)
chain: MNTADQARVGPADDGPAPSGEEEGEGGGEAGGKEPAADAAPGPSAAFRLMVTRREPAVKLQYAVSGLEPLAWSEDHRVSVSTARSIAVLELICDVHNPGQDLVIHRTSVPAPLNSCLLKVGSKTEVAECKEKFAASKDPTVSQTFMLDRVFNPEGKALPPMRGFKYTSWSPMGCDANGRCLLAALTMDNRLTIQANLNRLQWVQLVDLTEIYGERLYETSYRLSKNEAPEGNLGDFAEFQRRHSMQTPVRMEWSGICTTQQVKHNNECRDVGSVLLAVLFENGNIAVWQFQLPFVGKESISSCNTIESGITSPSVLFWWEYEHNNRKMSGLIVGSAFGPIKILPVNLKAVKGYFTLRQPVILWKEMDQLPVHSIKCVPLYHPYQKCSCSLVVAARGSYVFWCLLLISKAGLNVHNSHVTGLHSLPIVSMTADKQNGTVYTCSSDGKVRQLIPIFTDVALKFEHQLIKLSDVFGSVRTHGIAVSPCGAYLAIITTEGMINGLHPVNKNYQVQFVTLKTFEEAAAQLLESSVQNLFKQVDLIDLVRWKILKDKHIPQFLQEALEKKIESSGVTYFWRFKLFLLRILYQSMQKTPSEALWKPTHEDSKILLVDSPGMGNADDEQQEEGTSSKQVVKQGLQERSKEGDVEEPTDDSLPTTGDAGGREPMEEKLLEIQGKIEAVEMHLTREHMKRVLGEVYLHTWITENTSIPTRGLCNFLMSDEEYDDRTARVLIGHISKKMNKQTFPEHCSLCKEILPFTDRKQAVCSNGHIWLRCFLTYQSCQSLIYRRCLLHDSIARHPAPEDPDWIKRLLQSPCPFCDSPVF
B2: UTP14A (protein, UniProt Q9BVJ6 1-771)
chain: MTANRLAESLLALSQQEELADLPKDYLLSESEDEGDNDGERKHQKLLEAISSLDGKNRRKLAERSEASLKVSEFNVSSEGSGEKLVLADLLEPVKTSSSLATVKKQLSRVKSKKTVELPLNKEEIERIHREVAFNKTAQVLSKWDPVVLKNRQAEQLVFPLEKEEPAIAPIEHVLSGWKARTPLEQEIFNLLHKNKQPVTDPLLTPVEKASLRAMSLEEAKMRRAELQRARALQSYYEAKARREKKIKSKKYHKVVKKGKAKKALKEFEQLRKVNPAAALEELEKIEKARMMERMSLKHQNSGKWAKSKAIMAKYDLEARQAMQEQLSKNKELTQKLQVASESEEEEGGTEDVEELLVPDVVNEVQMNADGPNPWMLRSCTSDTKEAATQEDPEQLPELEAHGVSESEGEERPVAEEEILLREFEERRSLRKRSELSQDAEPAGSQETKDSGSQEVLSELRVLSQKLKENHQSRKQKASSEGTIPQVQREEPAPEEEEPLLLQRPERVQTLEELEELGKEECFQNKELPRPVLEGQQSERTPNNRPDAPKEKKKKEQMIDLQNLLTTQSPSVKSLAVPTIEELEDEEERNHRQMIKEAFAGDDVIRDFLKEKREAVEASKPKDVDLTLPGWGEWGGVGLKPSAKKRRRFLIKAPEGPPRKDKNLPNVIINEKRNIHAAAHQVRVLPYPFTHHWQFERTIQTPIGSTWNTQRAFQKLTTPKVVTKPGHIINPIKAEDVGYRSSSRSDLSVIQRNPKRITTRHKKQLKKCSVD
B3: UTP18 (protein, UniProt Q9Y5J1 1-556)
chain: MPPERRRRMKLDRRTGAKPKRKPGMRPDWKAGAGPGGPPQKPAPSSQRKPPARPSAAAAAIAVAAAEEERRLRQRNRLRLEEDKPAVERCLEELVFGDVENDEDALLRRLRGPRVQEHEDSGDSEVENEAKGNFPPQKKPVWVDEEDEDEEMVDMMNNRFRKDMMKNASESKLSKDNLKKRLKEEFQHAMGGVPAWAETTKRKTSSDDESEEDEDDLLQRTGNFISTSTSLPRGILKMKNCQHANAERPTVARISSVQFHPGAQIVMVAGLDNAVSLFQVDGKTNPKIQSIYLERFPIFKACFSANGEEVLATSTHSKVLYVYDMLAGKLIPVHQVRGLKEKIVRSFEVSPDGSFLLINGIAGYLHLLAMKTKELIGSMKINGRVAASTFSSDSKKVYASSGDGEVYVWDVNSRKCLNRFVDEGSLYGLSIATSRNGQYVACGSNCGVVNIYNQDSCLQETNPKPIKAIMNLVTGVTSLTFNPTTEILAIASEKMKEAVRLVHLPSCTVFSNFPVIKNKNISHVHTMDFSPRSGYFALGNEKGKALMYRLHHYSDF
B4: TCOF1 (protein, UniProt Q13428 1-1488)
chain: MAEARKRRELLPLIYHHLLRAGYVRAAREVKEQSGQKCFLAQPVTLLDIYTHWQQTSELGRKRKAEEDAALQAKKTRVSDPISTSESSEEEEEAEAETAKATPRLASTNSSVLGADLPSSMKEKAKAETEKAGKTGNSMPHPATGKTVANLLSGKSPRKSAEPSANTTLVSETEEEGSVPAFGAAAKPGMVSAGQADSSSEDTSSSSDETDVEGKPSVKPAQVKASSVSTKESPARKAAPAPGKVGDVTPQVKGGALPPAKRAKKPEEESESSEEGSESEEEAPAGTRSQVKASEKILQVRAASAPAKGTPGKGATPAPPGKAGAVASQTKAGKPEEDSESSSEESSDSEEETPAAKALLQAKASGKTSQVGAASAPAKESPRKGAAPAPPGKTGPAVAKAQAGKREEDSQSSSEESDSEEEAPAQAKPSGKAPQVRAASAPAKESPRKGAAPAPPRKTGPAAAQVQVGKQEEDSRSSSEESDSDREALAAMNAAQVKPLGKSPQVKPASTMGMGPLGKGAGPVPPGKVGPATPSAQVGKWEEDSESSSEESSDSSDGEVPTAVAPAQEKSLGNILQAKPTSSPAKGPPQKAGPVAVQVKAEKPMDNSESSEESSDSADSEEAPAAMTAAQAKPALKIPQTKACPKKTNTTASAKVAPVRVGTQAPRKAGTATSPAGSSPAVAGGTQRPAEDSSSSEESDSEEEKTGLAVTVGQAKSVGKGLQVKAASVPVKGSLGQGTAPVLPGKTGPTVTQVKAEKQEDSESSEEESDSEEAAASPAQVKTSVKKTQAKANPAAARAPSAKGTISAPGKVVTAAAQAKQRSPSKVKPPVRNPQNSTVLARGPASVPSVGKAVATAAQAQTGPEEDSGSSEEESDSEEEAETLAQVKPSGKTHQIRAALAPAKESPRKGAAPTPPGKTGPSAAQAGKQDDSGSSSEESDSDGEAPAAVTSAQVIKPPLIFVDPNRSPAGPAATPAQAQAASTPRKARASESTARSSSSESEDEDVIPATQCLTPGIRTNVVTMPTAHPRIAPKASMAGASSSKESSRISDGKKQEGPATQVSKKNPASLPLTQAALKVLAQKASEAQPPVARTQPSSGVDSAVGTLPATSPQSTSVQAKGTNKLRKPKLPEVQQATKAPESSDDSEDSSDSSSGSEEDGEGPQGAKSAHTLGPTPSRTETLVEETAAESSEDDVVAPSQSLLSGYMTPGLTPANSQASKATPKLDSSPSVSSTLAAKDDPDGKQEAKPQQAAGMLSPKTGGKEAASGTTPQKSRKPKKGAGNPQASTLALQSNITQCLLGQPWPLNEAQVQASVVKVLTELLEQERKKVVDTTKESSRKGWESRKRKLSGDQPAARTPRSKKKKKLGAGEGGEASVSPEKTSTTSKGKAKRDKASGDVKEKKGKGSLGSQGAKDEPEEELQKGMGTVEGGDQSNPKSKKEKKKSDKRKKDKEKKEKKKKAKKASTKDSESPSQKKKKKKKKTAEQTV
B5: UTP11 (protein, UniProt Q9Y3A2 1-253)
chain: MAAAFRKAAKSRQREHRERSQPGFRKHLGLLEKKKDYKLRADDYRKKQEYLKALRKKALEKNPDEFYYKMTRVKLQDGVHIIKETKEEVTPEQLKLMRTQDVKYIEMKRVAEAKKIERLKSELHLLDFQGKQQNKHVFFFDTKKEVEQFDVATHLQTAPELVDRVFNRPRIETLQKEKVKGVTNQTGLKRIAKERQKQYNCLTQRIEREKKLFVIAQKIQTRKDLMDKTQKVKVKKETVNSPAIYKFQSRRKR
B6: DDX18 (protein, UniProt Q9NVP1 1-670)
chain: MSHLPMKLLRKKIEKRNLKLRQRNLKFQGASNLTLSETQNGDVSEETMGSRKVKKSKQKPMNVGLSETQNGGMSQEAVGNIKVTKSPQKSTVLTNGEAAMQSSNSESKKKKKKKRKMVNDAEPDTKKAKTENKGKSEEESAETTKETENNVEKPDNDEDESEVPSLPLGLTGAFEDTSFASLCNLVNENTLKAIKEMGFTNMTEIQHKSIRPLLEGRDLLAAAKTGSGKTLAFLIPAVELIVKLRFMPRNGTGVLILSPTRELAMQTFGVLKELMTHHVHTYGLIMGGSNRSAEAQKLGNGINIIVATPGRLLDHMQNTPGFMYKNLQCLVIDEADRILDVGFEEELKQIIKLLPTRRQTMLFSATQTRKVEDLARISLKKEPLYVGVDDDKANATVDGLEQGYVVCPSEKRFLLLFTFLKKNRKKKLMVFFSSCMSVKYHYELLNYIDLPVLAIHGKQKQNKRTTTFFQFCNADSGTLLCTDVAARGLDIPEVDWIVQYDPPDDPKEYIHRVGRTARGLNGRGHALLILRPEELGFLRYLKQSKVPLSEFDFSWSKISDIQSQLEKLIEKNYFLHKSAQEAYKSYIRAYDSHSLKQIFNVNNLNLPQVALSFGFKVPPFVDLNVNSNEGKQKKRGGGGGFGYQKTKKVEKSKIFKHISKKSSDSRQFSH
B7: DDX52 (protein, UniProt Q9Y2R4 1-599)
chain: MDVHDLFRRLGAGAKFDTRRFSADAARFQIGKRKYDFDSSEVLQGLDFFGNKKSVPGVCGASQTHQKPQNGEKKEESLTERKREQSKKKRKTMTSEIASQEEGATIQWMSSVEAKIEDKKVQRESKLTSGKLENLRKEKINFLRNKHKIHVQGTDLPDPIATFQQLDQEYKINSRLLQNILDAGFQMPTPIQMQAIPVMLHGRELLASAPTGSGKTLAFSIPILMQLKQPANKGFRALIISPTRELASQIHRELIKISEGTGFRIHMIHKAAVAAKKFGPKSSKKFDILVTTPNRLIYLLKQDPPGIDLASVEWLVVDESDKLFEDGKTGFRDQLASIFLACTSHKVRRAMFSATFAYDVEQWCKLNLDNVISVSIGARNSAVETVEQELLFVGSETGKLLAVRELVKKGFNPPVLVFVQSIERAKELFHELIYEGINVDVIHAERTQQQRDNTVHSFRAGKIWVLICTALLARGIDFKGVNLVINYDFPTSSVEYIHRIGRTGRAGNKGKAITFFTEDDKPLLRSVANVIQQAGCPVPEYIKGFQKLLSKQKKKMIKKPLERESISTTPKCFLEKAKDKQKKVTGQNSKKKVALEDKS

The binders below were run against FLAG-tagged CK2α (human) (UniProt P68400) (assay: affinity purification with mass spectrometry; FLAG-CK2α expressed in HEK293; nuclear fractions of cells starved and restimulated with serum to early G1 (6 h) or late G1 (15-16 h); pre-cleared with normal IgG-agarose, anti-FLAG M2 agarose, eluted with FLAG peptide, trypsin, nano-LC MS/MS (Mascot)).
In the case of B1, the binding is reported as “binds”. In the case of B2, the binding is reported as “binds”. With B3 the binding was “binds”. In the case of B4, the binding is reported as “binds”. In the case of B5, the binding is reported as “binds”. With B6 the binding was “binds”. For B7, the binding was “binds”.

These are yes or no findings as the source states them, for the method shown. Binding seen in cells or lysates may run through a third protein. Here binding means that the protein was enriched with, or labelled near, the bait; the list need not be complete.
